Article PMC7935965
No constants are given. Whether binding was seen depends on the method and setting. Binding seen in cells or lysates may run through a third protein. Some entries that bind do so weakly or less than the wild type. Where a sequence is shown, tags or fusion partners need not be part of it.

The chains behind the UniProt entries cited, without tags or fusion partners.
UniProt Q9BUR4: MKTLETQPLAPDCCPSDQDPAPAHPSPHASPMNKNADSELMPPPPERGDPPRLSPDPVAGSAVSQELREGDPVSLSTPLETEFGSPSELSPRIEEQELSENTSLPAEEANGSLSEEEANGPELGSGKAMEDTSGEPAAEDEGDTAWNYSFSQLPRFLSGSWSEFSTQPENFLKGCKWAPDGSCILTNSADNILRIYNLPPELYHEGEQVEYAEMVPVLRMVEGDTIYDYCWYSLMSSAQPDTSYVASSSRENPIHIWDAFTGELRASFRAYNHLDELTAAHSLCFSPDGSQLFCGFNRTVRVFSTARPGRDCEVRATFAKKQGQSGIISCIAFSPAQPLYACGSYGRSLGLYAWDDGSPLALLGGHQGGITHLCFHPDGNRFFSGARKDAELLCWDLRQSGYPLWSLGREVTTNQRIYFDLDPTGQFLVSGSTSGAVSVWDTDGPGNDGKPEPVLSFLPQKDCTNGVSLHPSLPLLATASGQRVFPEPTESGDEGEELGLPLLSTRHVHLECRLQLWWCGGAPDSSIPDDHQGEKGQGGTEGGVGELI

Target: T1, Flag-RecQL4 (HEK293) (human) (UniProt O94761)
T1 sequence: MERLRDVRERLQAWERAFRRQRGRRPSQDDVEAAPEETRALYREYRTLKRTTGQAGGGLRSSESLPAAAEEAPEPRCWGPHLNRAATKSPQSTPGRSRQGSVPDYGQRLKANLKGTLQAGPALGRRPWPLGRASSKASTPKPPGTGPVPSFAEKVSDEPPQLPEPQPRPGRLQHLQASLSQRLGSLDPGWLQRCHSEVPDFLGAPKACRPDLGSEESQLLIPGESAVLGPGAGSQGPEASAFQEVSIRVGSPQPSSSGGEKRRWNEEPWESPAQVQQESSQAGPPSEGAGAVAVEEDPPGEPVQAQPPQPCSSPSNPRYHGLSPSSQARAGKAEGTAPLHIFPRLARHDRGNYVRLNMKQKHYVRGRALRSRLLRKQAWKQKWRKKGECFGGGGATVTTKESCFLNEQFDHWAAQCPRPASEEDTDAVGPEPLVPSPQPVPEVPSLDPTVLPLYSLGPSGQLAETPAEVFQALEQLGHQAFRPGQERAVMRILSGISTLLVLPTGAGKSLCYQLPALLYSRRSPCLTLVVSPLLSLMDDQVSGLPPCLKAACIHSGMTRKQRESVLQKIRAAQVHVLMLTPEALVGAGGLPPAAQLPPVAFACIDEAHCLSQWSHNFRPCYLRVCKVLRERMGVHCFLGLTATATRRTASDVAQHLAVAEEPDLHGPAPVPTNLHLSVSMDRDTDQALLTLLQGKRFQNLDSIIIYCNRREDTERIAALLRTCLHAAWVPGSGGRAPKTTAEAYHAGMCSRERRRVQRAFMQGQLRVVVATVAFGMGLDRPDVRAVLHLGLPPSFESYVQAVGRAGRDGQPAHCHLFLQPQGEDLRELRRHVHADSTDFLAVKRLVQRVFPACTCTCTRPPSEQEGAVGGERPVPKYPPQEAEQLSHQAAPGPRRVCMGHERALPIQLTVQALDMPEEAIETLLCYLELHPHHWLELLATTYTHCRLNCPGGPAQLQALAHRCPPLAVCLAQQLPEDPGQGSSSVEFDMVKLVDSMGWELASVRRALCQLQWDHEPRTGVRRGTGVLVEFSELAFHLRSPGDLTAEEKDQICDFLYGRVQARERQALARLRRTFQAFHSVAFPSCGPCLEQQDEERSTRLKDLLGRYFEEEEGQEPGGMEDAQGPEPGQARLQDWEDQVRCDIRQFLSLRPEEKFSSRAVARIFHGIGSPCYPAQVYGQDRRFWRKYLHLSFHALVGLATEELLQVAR
Assay: co-IP; anti-Flag immunoprecipitation from lysate of HEK293 cells transfected with Flag-RecQL4; western blot for endogenous WRAP53β

- binding: binds
Substance: endogenous WRAP53β (from UniProt Q9BUR4 1-548)
